The source of these data is US20090099197A1 (priority 2005, published 2009).

Broadly, the IC50 is the midpoint of a concentration-inhibition curve. A high value points to weaker potency.

Test [1] relates to K562 (erythromyeloblastoid CML) cells. As to the kind of experiment: cells. Conditions: Homo sapiens, K562, 72 h.
The test system of test [2] is K562-R (K562/STI-571/R) imatinib resistant cells. In words: cells. Conditions: Homo sapiens, K-562R.

Structures are written as SMILES. Where only a bound is given, the exact number is not on record here.

With `Cc1ccc(NC(=O)c2ccc(CN3CCN(C)CC3)cc2)cc1Nc1nccc(-c2cccnc2)n1` [imatinib, reference compound], the IC50 in test [1] is 217 nM; in test [2] it was greater than 12200 nM.
